Measurements from patent US10722599B2, “Lipid assemblies and uses thereof and some pH and electrostatic modulating lipids to be used in said assemblies” (Yissum Research Development Company of the Hebrew …, priority 2015, dated 2020).

Columns and labels:
[1] = system: IFIT1, MX1, OAS1, ISG15 mRNA in PBMC; conditions: 200 and 20 nM RAC1 siRNA, 24±2 hours, qPCR
[2] = system: IL-6 and TNF-α secretion by PBMC; assay: Innate immune activation: cytokine induction in PBMC; conditions: 200 and 20 nM RAC1 siRNA, 24±2 hours, ELISA

In the case of `CCCc1nc2c(N)nc3ccccc3c2s1` [CL075], the “mRNA levels of IFIT1, MX1, OAS1 and ISG15” value [1] is reported as “increase in the expression levels of the genes tested” and the “IL-6 and TNFα cytokine secretion” value [2] is reported as “induced high and significant IL-6 and TNFα secretion”.
